According to PubChem BioAssay AID540256 (National Center for Advancing Translational Sciences (NCATS), 2011):
The whole screen tested about 300,000 compounds, of which about 3,700 (1.2%) were called active. Inconclusive results, whose numbers are uncertain, are shown with a selection of clear calls. Calls follow the shape of the full dose curve; tested in HEK293 cells. Where the call is inconclusive, the potency comes from a doubtful curve fit.

Experiment: qHTS for Inhibitors of binding or entry into cells for Lassa Virus; also: nearly all actives have a fitted effect of over 50% in size
Details: Lassa virus pseudotype entry inhibition, cell reporter; activity change, negative = inhibition: at 37.9 µM (top of the series) unless noted
% is scaled to controls: 0 for no effect and ±100 for the full control effect; potency is read from the fitted curve at half-maximal effect.

Compound | Potency | activity change, negative = inhibition
Cc1nn(CC(=O)NCCCN2CCCC2=O)c(C)c1[N+](=O)[O-] | inconclusive: 1.26 µM [inhibitor, single point] | –
O=C(O)/C=C\C(=O)NNC(=O)c1cc(-c2ccccc2)n[nH]1 | – | inactive: 6.18%
O=C(NCCCO)C(=O)NCCc1ccc(Cl)cc1 | inconclusive: 35.5 µM [activator, single point] | –
O=C(O)/C=C/C(=O)Nc1ccc(OCc2ccccc2)cc1 | – | inactive: -21.3%
COc1cc(OC)cc(C(=O)NNC(=O)c2ccccn2)c1 | inconclusive: 11.2 µM [inhibitor, partial curve, poor fit] | –
COc1cccc(NC(=O)c2ccc(-c3ccc([N+](=O)[O-])cc3)o2)c1 | – | inactive: 4.23% [at 46.1 µM]
Cc1ccc(Cl)c(Nc2ccccc2C(=O)O)c1Cl | inconclusive: 0.58 µM [inhibitor, single point] | –
Cc1cccc(CNC(=O)Cn2nc(C)c3nn(-c4ccc(Cl)cc4)c(C)c3c2=O)c1 | – | inactive: 0.291% [at 46.1 µM]
O=C(NCc1ccccc1Cl)C1CCN(S(=O)(=O)N2CCCCC2)CC1 | – | inactive: 4.48%
Cc1c(CNC2CCCCCC2)c(C(=O)O)c(C)n1Cc1cccc(Cl)c1 | – | inactive: 1.26% [at 46.1 µM]
COc1cccc(CN(C(=O)Cc2c[nH]c3ccccc23)C(C(=O)NC2CCCCC2)c2ccc(C)o2)c1 (stereo not given) | inconclusive: 2.82 µM [inhibitor, full curve, poor fit] | –
CCCn1cc(CN2CCc3ccc(NC(=O)C4CCCO4)cc3C2)c(C)n1 (stereo not given) | – | inactive: -2.45%
CS(=O)(=O)N(CC(=O)Nc1ccc2c(c1)OCCO2)Cc1ccccc1 | – | inactive: -1.62%
CCn1ccnc1CN1CCCC(C(=O)c2cc(Cl)ccc2OC)C1 (stereo not given) | inconclusive: 22.4 µM [inhibitor, single point] | –
CCCn1c2ccc(C)cc2c2nnc(SCCN3CCOCC3)nc21 | inconclusive: 1.58 µM [inhibitor, partial curve, poor fit] | –
Oc1cccc(/C=N/NC(=S)Nc2cccnc2)c1O | active: 20.6 µM | –
CC(C)(C)C1CCc2c(sc(NC(=O)c3cccs3)c2C(N)=O)C1 (stereo not given) | – | inactive: -20.9%
CN(C(=O)CSc1nc2cc(Cl)ccc2c(=O)n1Cc1ccco1)C1CCS(=O)(=O)C1 (stereo not given) | – | inactive: 6.1% [at 46.1 µM]
Cc1cc2c(Nc3ccc(O)cc3)ncnc2s1 | – | inactive: -2.95% [at 46.1 µM]
CCOC(=O)C1=C(C)NC(C)=C(C(=O)OCC)C1C(=O)OCC(=O)NC | inconclusive: 1.26 µM [activator, single point] | –
CCOC(=O)c1c(S(=O)(=O)N2CCCC(C(=O)Nc3cccc(CC)c3)C2)c(C)n(CC)c1C (stereo not given) | – | inactive: 3.05% [at 46.1 µM]
Cc1ccc(-n2ncc(C(=O)N3CCN(c4ccccc4F)CC3)c2C2CCN(C(=O)OC(C)(C)C)CC2)cc1C | inconclusive: 6.31 µM [inhibitor, single point] | –
CC(=O)Nc1cccc(NC(=O)C(=O)NCC(c2ccco2)N2CCc3ccccc32)c1 (stereo not given) | inconclusive: 35.5 µM [inhibitor, single point] | –
CCCCNC(=O)CSc1nc2cc3c(cc2c(=O)n1CCC(=O)NCCc1ccc(OC)c(OC)c1)OCO3 | inconclusive: 3.16 µM [inhibitor, single point] | –

Sorted by count of non-hydrogen atoms (smallest number first): 3 of the compounds above
Compound | Potency | activity change, negative = inhibition
CC(C)(C)C1CCc2c(sc(NC(=O)c3cccs3)c2C(N)=O)C1 (stereo not given) | – | inactive: -20.9%
CN(C(=O)CSc1nc2cc(Cl)ccc2c(=O)n1Cc1ccco1)C1CCS(=O)(=O)C1 (stereo not given) | – | inactive: 6.1% [at 46.1 µM]
CCOC(=O)c1c(S(=O)(=O)N2CCCC(C(=O)Nc3cccc(CC)c3)C2)c(C)n(CC)c1C (stereo not given) | – | inactive: 3.05% [at 46.1 µM]

(more compounds)

Compound | Potency | activity change, negative = inhibition
O=C(Nc1ccc(N2CCOCC2)c(Cl)c1)c1cccnc1 | inconclusive: 35.5 µM [activator, partial curve, poor fit] | –
CC(=O)Oc1c(I)cc(I)cc1C(=O)Nc1ccc(Cl)cc1 | active: 12.6 µM | –
COc1ccc(NC(=O)Cn2cc(C(=O)c3ccc(C)c(C)c3)c(=O)c3cc(OC)ccc32)cc1 | – | inactive: 24.7% [at 46.1 µM]
COC(=O)c1[nH]c2ccc(C)cc2c1NC(=O)CN1CCN(Cc2ccccc2)CC1 | inconclusive: 10 µM [inhibitor, partial curve, poor fit] | –
O=C(NNC(=O)c1ccccc1F)c1ccco1 | inconclusive: 7.08 µM [activator, partial curve, poor fit] | –
Cc1ccc(CSC2=NC(C)(C)Nc3ccccc32)c(C)c1 | – | inactive: 16.2% [at 46.1 µM]
Cc1ccccc1S(=O)Cc1ccc(C(=O)NCc2ccccc2Cl)o1 (stereo not given) | inconclusive: 35.5 µM [inhibitor, single point] | –
Cc1c(CCC(=O)O)c(=O)oc2cc3oc4c(c3cc12)CCCC4 | inconclusive: 1.12 µM [inhibitor, full curve, poor fit] | –
O=C(CSc1ccc2ccccc2c1)NCCc1ccc(O)c(O)c1 | inconclusive: 35.5 µM [inhibitor, single point] | –
COc1ccc(CNC(=O)C(NS(=O)(=O)c2ccc3c(c2)CCCN3C(C)=O)C(C)C)cc1 (stereo not given) | inconclusive: 4.61 µM [inhibitor, partial curve, poor fit] | –
COc1ccc(N2CCN(CCCN)CC2)cc1 | inconclusive: 8.91 µM [activator, partial curve, poor fit] | –
CCNc1nc2c(c(=O)n(C)c(=O)n2C)n1Cc1ccc(F)cc1 | inconclusive: 10 µM [inhibitor, partial curve, poor fit] | –
CCOc1ccc(N/C(N)=N/c2nc(CSc3nnc(C)s3)cc(=O)[nH]2)cc1 | inconclusive: 0.291 µM [inhibitor, full curve, poor fit] | –
Cc1ccc(OCC(=O)NNC(=O)C(C)Sc2ncnc3sc(C)c(C)c23)cc1 (stereo not given) | – | inactive: -1.43%
Cc1cc(C)n2ncc(C(=O)NCc3ccccc3)c2n1 | inconclusive: 16.4 µM [inhibitor, single point] | –
Cc1cccc(N2CCN(C(=O)CCS(=O)(=O)c3ccc4c(c3)CC(=O)N4C)CC2C)c1 (stereo not given) | – | inactive: 12% [at 46.1 µM]
COc1ccc(/C=N/NC(=O)c2ccc(CN3c4cccc5cccc(c45)S3(=O)=O)cc2)cc1 | inconclusive: 14.1 µM [activator, partial curve, poor fit] | –
Clc1ccc2nc(-c3ccccc3)cn2c1 | inconclusive: 5.62 µM [inhibitor, full curve, poor fit] | –
CCOc1ccc2ccc(OCC)c(/C=N/n3cnnc3)c2c1 | – | inactive: -10.4%
CCc1ccc(C(=O)Cn2ccsc2=N)cc1 | inconclusive: 5.62 µM [inhibitor, full curve, poor fit] | –
Cc1ccc(CSc2nnc(SCC(=O)N/N=C/C=C/c3ccccc3[N+](=O)[O-])s2)cc1 | inconclusive: 11.2 µM [inhibitor, partial curve, poor fit] | –
CCC(=O)Nc1ccc(-c2nnc(-c3ccccc3)o2)cc1 | inconclusive: 20.6 µM [inhibitor, single point] | –
CC(=O)NCCOc1ccc(C(=O)O)cc1 | – | inactive: 21.9%
Cc1ccc(NC(=O)c2ccc(OCc3c(C)noc3C)cc2)cc1C | inconclusive: 28.2 µM [inhibitor, single point] | –

Compound | Potency | activity change, negative = inhibition
CC(C)(C)C(=O)Nc1sc2c(c1-c1nc3ccccc3[nH]1)CCCC2 | – | inactive: 4.26%
CC(C)(C)n1nnnc1C(c1ccccc1F)N(Cc1ccco1)CC1CCCO1 (stereo not given) | inconclusive: 32.6 µM [inhibitor, single point] | –
CCOC(=O)c1cccnc1NC(=O)c1ccncc1 | inconclusive: 35.5 µM [inhibitor, single point] | –
O=C(Nc1cccc(F)c1)c1cnc2sc(N3CCCC3)nn2c1=O | – | inactive: 6.24% [at 46.1 µM]
COC(=O)c1c(C)oc2ccc(N(C(=O)c3ccncc3)S(=O)(=O)c3ccc(Br)cc3)cc12 | inconclusive: 22.4 µM [inhibitor, partial curve, poor fit] | –
O=C(O)c1ccc(N2CCN(Cc3ccc4c(c3)OCO4)CC2)c([N+](=O)[O-])c1 | – | inactive: -3.31%
COc1ccc(C)c2sc(N(Cc3cccnc3)C(=O)c3cccs3)nc12 | inconclusive: 35.5 µM [inhibitor, single point] | –
Oc1ccc(N2CCN(c3nnnn3-c3ccccc3)CC2)cc1 | inconclusive: 11.2 µM [inhibitor, partial curve, poor fit] | –
COCCNC(=O)C(c1ccccc1C)N(CCOC)C(=O)Cn1nnc2ccccc21 (stereo not given) | inconclusive: 31.6 µM [activator, partial curve, poor fit] | –
O=C(c1ccccc1)C(CN1CCCC1)c1ccccc1 (stereo not given) | active: 7.94 µM | –
CCN(CC)CCOC(=O)c1ccc(NC(=O)CCCN2C(=O)/C(=C/c3cccs3)SC2=S)cc1 | inconclusive: 35.5 µM [inhibitor, single point] | –
O=C(Cc1ccccc1)NN1C(=O)C2C3C=CC(C4CC34)C2C1=O (stereo not given) | – | inactive: 2.99%
COc1cccc(NC(=O)Cn2c(=O)n(CCC(=O)NCc3ccccc3OC)c(=O)c3ccccc32)c1 | inconclusive: 35.5 µM [inhibitor, single point] | –
COC(=O)c1ccccc1NC(=O)C1CCN(c2ncnc3c2nc2n3CCCCC2)CC1 | inconclusive: 35.5 µM [inhibitor, single point] | –
Cc1cc(C)c(C(=O)Cn2nc(C)c([N+](=O)[O-])c2C)cc1C | – | inactive: -27.3%
O=C(NC1CCCC1)C(c1ccc(Cl)cc1)N(Cc1ccc(F)cc1)C(=O)CCl (stereo not given) | inconclusive: 17.8 µM [inhibitor, partial curve, poor fit] | –
O=C(CN1CCc2ccccc21)NC(c1ccccc1)c1ccccc1 | inconclusive: 32.6 µM [inhibitor, single point] | –
O=C(O)C1CCCN1S(=O)(=O)c1ccc(Cl)c(Cl)c1 (stereo not given) | – | inactive: 15.1%
Cc1ccc(C(=O)Nc2ccc3c(c2)OCO3)cc1 | inconclusive: 3.66 µM [inhibitor, full curve, poor fit] | –
COC(=O)Cc1ccc(NC(=S)NCC(C)C)cc1 | – | inactive: 11.8%
CC(C)(C)c1ccc(/C=C/C(=O)NC2=NCCS2)cc1 | active: 14.1 µM | –
CC(=O)Nc1cccc(NC(=O)CSc2nnnn2Cc2ccccc2)c1 | inconclusive: 12.6 µM [inhibitor, single point] | –

Quoted from the listing.
CC(C)(C)c1ccc(/C=C/C(=O)NC2=NCCS2)cc1 – Potency: active: 14.1 µM
COC(=O)c1ccccc1NC(=O)C1CCN(c2ncnc3c2nc2n3CCCCC2)CC1 – Potency: inconclusive: 35.5 µM [inhibitor, single point]
